# Test: Fluorescence detection sensitivity of serial dilutions at 10 cm from the detector face of the camera system
# Format: physicochemical
# Details: for fluorescence signal intensity (detection sensitivity): distance 10 cm
compound,measurement,setting,value
"CC1(C)C(/C=C/C=C/C=C/C=C2\N(CCCCS(=O)(=O)O)c3ccc4ccccc4c3C2(C)C)=[N+](CCCCS(=O)(=O)[O-])c2ccc3ccccc3c21 [ICG, indocyanine green]",maximum detection sensitivity (threshold concentration per particle volume),"10 cm from the detector face, 6 nm (C′ dots) vs 100 nm (ICG) particles",1000 M/meter^3
same,fluorescence signal intensity (detection sensitivity),"NIR settings 80 W_14 dB_46 ms, dilution 1:2, concentration 7.5 uM",>
same,fluorescence signal intensity (detection sensitivity),"NIR settings 80 W_14 dB_46 ms, dilution 1:10, concentration 1.5 uM",>
same,fluorescence signal intensity (detection sensitivity),"NIR settings 80 W_14 dB_46 ms, dilution 1:100, concentration 0.15 uM",34
same,fluorescence signal intensity (detection sensitivity),"NIR settings 80 W_14 dB_46 ms, dilution 1:210, concentration 0.071 uM",0
same,fluorescence signal intensity (detection sensitivity),"NIR settings 80 W_14 dB_46 ms, non-diluted, concentration 15 uM",>
same,fluorescence signal intensity (detection sensitivity),"NIR settings 100 W_14 dB_80 ms, dilution 1:210, concentration 0.071 uM",35
same,fluorescence signal intensity (detection sensitivity),"NIR settings 100 W_14 dB_80 ms, dilution 1:500, concentration 0.03 uM",21
same,fluorescence signal intensity (detection sensitivity),"NIR settings 100 W_14 dB_80 ms, dilution 1:1000, concentration 15 nM",0
same,fluorescence signal intensity (detection sensitivity),"NIR settings 100 W_14 dB_80 ms, dilution 1:10000, concentration 1.5 nm",0
